Source: paper PMC8764063
No constants are given. Whether binding was seen depends on the method and setting. In cells and extracts the contact can be indirect. Some binding calls cover weakened binding; strength is not graded here. For part of these data: Where a sequence is shown, tags or fusion partners need not be part of it.

Amino acid sequences for entries named in this document (tags omitted). A change or cut given only in a name is not applied to a line headed by its entry. Chains listed by the source or under a name are the forms on record and can include a tag or linker.
UniProt P09874: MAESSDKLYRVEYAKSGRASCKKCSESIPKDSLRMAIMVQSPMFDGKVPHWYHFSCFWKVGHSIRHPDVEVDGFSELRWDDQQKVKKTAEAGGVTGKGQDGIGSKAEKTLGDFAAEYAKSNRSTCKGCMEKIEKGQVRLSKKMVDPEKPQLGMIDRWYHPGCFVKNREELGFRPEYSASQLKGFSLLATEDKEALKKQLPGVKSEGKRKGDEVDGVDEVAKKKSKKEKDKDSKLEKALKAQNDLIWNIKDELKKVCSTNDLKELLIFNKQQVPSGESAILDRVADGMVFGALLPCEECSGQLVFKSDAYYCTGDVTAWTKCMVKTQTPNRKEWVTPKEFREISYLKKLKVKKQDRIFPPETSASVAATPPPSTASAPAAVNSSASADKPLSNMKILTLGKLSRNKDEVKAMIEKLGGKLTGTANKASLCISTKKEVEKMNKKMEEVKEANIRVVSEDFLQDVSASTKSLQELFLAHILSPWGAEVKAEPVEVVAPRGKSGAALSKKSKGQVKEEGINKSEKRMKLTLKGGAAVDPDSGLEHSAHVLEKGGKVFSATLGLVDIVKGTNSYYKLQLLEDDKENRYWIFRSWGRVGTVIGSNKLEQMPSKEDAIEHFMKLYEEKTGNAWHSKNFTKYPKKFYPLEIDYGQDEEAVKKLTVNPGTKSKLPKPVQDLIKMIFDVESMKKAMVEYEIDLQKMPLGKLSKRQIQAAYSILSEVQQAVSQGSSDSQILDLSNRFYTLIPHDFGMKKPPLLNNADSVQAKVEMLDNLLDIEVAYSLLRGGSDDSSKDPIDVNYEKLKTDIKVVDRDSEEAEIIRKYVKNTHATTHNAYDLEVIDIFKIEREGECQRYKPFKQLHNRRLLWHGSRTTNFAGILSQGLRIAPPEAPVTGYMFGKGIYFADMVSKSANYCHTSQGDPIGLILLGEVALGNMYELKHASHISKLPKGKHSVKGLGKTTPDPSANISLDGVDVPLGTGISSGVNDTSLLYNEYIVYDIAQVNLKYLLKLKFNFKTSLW
mtPARP1 generated in cells by caspase-mediated cleavage of mPARP1 (P09874, form named): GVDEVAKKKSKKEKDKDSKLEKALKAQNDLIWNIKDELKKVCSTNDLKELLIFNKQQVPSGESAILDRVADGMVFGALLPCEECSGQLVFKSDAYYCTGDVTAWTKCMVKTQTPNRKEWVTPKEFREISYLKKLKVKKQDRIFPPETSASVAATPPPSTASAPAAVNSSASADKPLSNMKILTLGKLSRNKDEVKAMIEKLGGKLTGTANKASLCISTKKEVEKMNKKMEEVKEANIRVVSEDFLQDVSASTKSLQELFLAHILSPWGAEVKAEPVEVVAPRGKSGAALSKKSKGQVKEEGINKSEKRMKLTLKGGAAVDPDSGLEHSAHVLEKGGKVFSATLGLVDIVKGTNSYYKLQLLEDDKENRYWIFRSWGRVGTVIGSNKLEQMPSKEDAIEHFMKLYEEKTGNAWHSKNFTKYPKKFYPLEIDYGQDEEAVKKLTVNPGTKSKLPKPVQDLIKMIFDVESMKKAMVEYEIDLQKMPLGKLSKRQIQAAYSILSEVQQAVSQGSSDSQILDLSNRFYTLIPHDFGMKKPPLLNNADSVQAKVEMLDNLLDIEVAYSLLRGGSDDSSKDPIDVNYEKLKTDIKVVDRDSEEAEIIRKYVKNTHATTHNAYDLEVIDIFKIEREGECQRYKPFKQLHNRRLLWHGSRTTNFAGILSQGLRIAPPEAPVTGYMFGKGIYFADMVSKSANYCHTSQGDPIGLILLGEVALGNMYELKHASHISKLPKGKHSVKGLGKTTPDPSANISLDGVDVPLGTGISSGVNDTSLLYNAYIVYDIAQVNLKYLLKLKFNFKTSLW

T1: POLR3F (human (endogenous in U2OS)), Q9H1D9
T1 chain: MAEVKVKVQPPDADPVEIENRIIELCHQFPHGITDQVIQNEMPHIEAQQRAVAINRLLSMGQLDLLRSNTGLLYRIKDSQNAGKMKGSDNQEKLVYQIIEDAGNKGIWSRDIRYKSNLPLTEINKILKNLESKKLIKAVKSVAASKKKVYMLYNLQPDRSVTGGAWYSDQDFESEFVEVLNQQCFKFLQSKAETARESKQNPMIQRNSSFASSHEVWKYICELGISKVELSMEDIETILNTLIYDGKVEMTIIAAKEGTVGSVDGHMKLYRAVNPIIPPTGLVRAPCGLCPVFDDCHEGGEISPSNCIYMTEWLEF

T2: FLAG-POLR3F (human), Q9H1D9
T2 chain: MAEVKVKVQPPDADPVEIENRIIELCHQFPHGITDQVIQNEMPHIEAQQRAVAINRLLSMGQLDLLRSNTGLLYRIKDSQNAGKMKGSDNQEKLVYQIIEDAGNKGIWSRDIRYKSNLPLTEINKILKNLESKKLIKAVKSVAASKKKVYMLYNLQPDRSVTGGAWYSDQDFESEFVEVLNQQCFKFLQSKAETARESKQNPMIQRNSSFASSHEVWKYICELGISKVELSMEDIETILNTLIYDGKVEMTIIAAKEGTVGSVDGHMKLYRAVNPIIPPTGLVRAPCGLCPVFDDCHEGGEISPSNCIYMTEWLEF

T3: FLAG-POLR3F, Q9H1D9
T3 chain: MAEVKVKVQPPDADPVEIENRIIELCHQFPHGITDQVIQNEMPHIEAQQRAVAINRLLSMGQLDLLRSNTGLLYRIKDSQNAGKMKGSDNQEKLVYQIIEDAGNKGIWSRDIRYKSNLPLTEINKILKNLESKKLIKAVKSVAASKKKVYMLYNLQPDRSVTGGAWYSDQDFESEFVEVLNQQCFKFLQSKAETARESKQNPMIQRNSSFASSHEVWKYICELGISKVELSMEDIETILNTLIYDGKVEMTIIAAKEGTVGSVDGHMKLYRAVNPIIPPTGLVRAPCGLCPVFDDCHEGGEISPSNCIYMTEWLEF


How the values were obtained:
[1] = molecular target: HA-tagged full-length PARP1 with the E988A mutation (mPARP1) (human) (UniProt P09874); test: co-IP; HA-tagged mtPARP1 or full-length mPARP1 ectopically expressed in U2OS-PARP1 knockout cells; IP with IgG as a negative control; POLR3A, POLR3B and POLR3F blotted
[2] = molecular target: HA-tagged mutant tPARP1 (HA-mtPARP1, tPARP1 E988A) (human) (UniProt P09874); test: as above
[3] = molecular target: HA-tagged full-length PARP1 with the E988A mutation (mPARP1) (human) (UniProt P09874); test: co-IP; mPARP1 expressed in U2OS PARP1-null cells, with or without 5 μg/mL poly(dA-dT) induction for 6 h (caspase cleavage to mtPARP1); endogenous POLR3A, POLR3B, POLR3F
[4] = molecular target: mtPARP1 generated in cells by caspase-mediated cleavage of mPARP1 (human) (UniProt P09874); test: as above
[5] = molecular target: T1, POLR3F (human (endogenous in U2OS)), …; test: co-IP; IP of POLR3F from the cytoplasmic fraction of U2OS cells treated with or without poly(dA-dT) (5 ug/ml, six hours); subunits detected by immunoblot; settings: remark: other sources report otherwise
[6] = molecular target: T2, FLAG-POLR3F (human), Q9H1D9; test: co-IP; Pol III complex purified by FLAG IP from U2OS cells stably expressing FLAG-POLR3F, with or without ADP-ribosylation by tPARP1 in vitro; subunits detected by Western blot with antibodies against the individual subunits; IgG as control IP; settings: remark: other sources report otherwise
[7] = molecular target: T3, FLAG-POLR3F, Q9H1D9; test: co-IP; Pol III complex from U2OS cells stably expressing FLAG-POLR3F: NETN100 lysate (S100), FLAG-M2 beads at 4 °C, four washes, elution with 100 µg/mL FLAG peptide, dialysis against PBS, then POLR3G antibody 1 h; with or without ADP-ribosylation in vitro or poly(dA-dT) stimulation of the cells; settings: remark: other sources report otherwise

| Molecule | binding [1] | binding [2] | binding [3] | binding [4] | binding [5] | binding [6] | binding [7] |
| --- | --- | --- | --- | --- | --- | --- | --- |
| POLR3F, subunit of the RNA polymerase III (Pol III) complex, endogenous (from UniProt Q9H1D9 1-316) | no binding | binds | no binding | binds | – | – | – |
| POLR3G, O15318 1-223 (protein) MAGNKGRGRAAYTFNIEAVGFSKGEKLPDVVLKPPPLFPDTDYKPVPLKTGEGEEYMLALKQELRETMKRMPYFIETPEERQDIERYSKRYMKVYKEEWIPDWRRLPREMMPRNKCKKAGPKPKKAKDAGKGTPLTNTEDVLKKMEELEKRGDGEKSDEENEEKEGSKEKSKEGDDDDDDDAAEQEEYDEEEQEEENDYINSYFEDGDDFGADSDDNMDEATY | – | – | – | – | binds | binds | – |
| POLR3A, subunit of the RNA polymerase III (Pol III) complex, endogenous (protein, UniProt O14802 1-1390) MVKEQFRETDVAKKISHICFGMKSPEEMRQQAHIQVVSKNLYSQDNQHAPLLYGVLDHRMGTSEKDRPCETCGKNLADCLGHYGYIDLELPCFHVGYFRAVIGILQMICKTCCHIMLSQEEKKQFLDYLKRPGLTYLQKRGLKKKISDKCRKKNICHHCGAFNGTVKKCGLLKIIHEKYKTNKKVVDPIVSNFLQSFETAIEHNKEVEPLLGRAQENLNPLVVLNLFKRIPAEDVPLLLMNPEAGKPSDLILTRLLVPPLCIRPSVVSDLKSGTNEDDLTMKLTEIIFLNDVIKKHRISGAKTQMIMEDWDFLQLQCALYINSELSGIPLNMAPKKWTRGFVQRLKGKQGRFRGNLSGKRVDFSGRTVISPDPNLRIDEVAVPVHVAKILTFPEKVNKANINFLRKLVQNGPEVHPGANFIQQRHTQMKRFLKYGNREKMAQELKYGDIVERHLIDGDVVLFNRQPSLHKLSIMAHLARVKPHRTFRFNECVCTPYNADFDGDEMNLHLPQTEEAKAEALVLMGTKANLVTPRNGEPLIAAIQDFLTGAYLLTLKDTFFDRAKACQIIASILVGKDEKIKVRLPPPTILKPVTLWTGKQIFSVILRPSDDNPVRANLRTKGKQYCGKGEDLCANDSYVTIQNSELMSGSMDKGTLGSGSKNNIFYILLRDWGQNEAADAMSRLARLAPVYLSNRGFSIGIGDVTPGQGLLKAKYELLNAGYKKCDEYIEALNTGKLQQQPGCTAEETLEALILKELSVIRDHAGSACLRELDKSNSPLTMALCGSKGSFINISQMIACVGQQAISGSRVPDGFENRSLPHFEKHSKLPAAKGFVANSFYSGLTPTEFFFHTMAGREGLVDTAVKTAETGYMQRRLVKSLEDLCSQYDLTVRSSTGDIIQFIYGGDGLDPAAMEGKDEPLEFKRVLDNIKAVFPCPSEPALSKNELILTTESIMKKSEFLCCQDSFLQEIKKFIKGVSEKIKKTRDKYGINDNGTTEPRVLYQLDRITPTQVEKFLETCRDKYMRAQMEPGSAVGALCAQSIGEPGTQMTLKTFHFAGVASMNITLGVPRIKEIINASKAISTPIITAQLDKDDDADYARLVKGRIEKTLLGEISEYIEEVFLPDDCFILVKLSLERIRLLRLEVNAETVRYSICTSKLRVKPGDVAVHGEAVVCVTPRENSKSSMYYVLQFLKEDLPKVVVQGIPEVSRAVIHIDEQSGKEKYKLLVEGDNLRAVMATHGVKGTRTTSNNTYEVEKTLGIEAARTTIINEIQYTMVNHGMSIDRRHVMLLSDLMTYKGEVLGITRFGLAKMKESVLMLASFEKTADHLFDAAYFGQKDSVCGVSECIIMGIPMNIGTGLFKLLHKADRDPNPPKRPLIFDTNEFHIPLVT | no binding | binds | no binding | binds | – | – | – |
| POLR3B, subunit of the RNA polymerase III (Pol III) complex, endogenous (protein, UniProt Q9NW08 1-1133) MDVLAEEFGNLTPEQLAAPIPTVEEKWRLLPAFLKVKGLVKQHIDSFNYFINVEIKKIMKANEKVTSDADPMWYLKYLNIYVGLPDVEESFNVTRPVSPHECRLRDMTYSAPITVDIEYTRGSQRIIRNALPIGRMPIMLRSSNCVLTGKTPAEFAKLNECPLDPGGYFIVKGVEKVILIQEQLSKNRIIVEADRKGAVGASVTSSTHEKKSRTNMAVKQGRFYLRHNTLSEDIPIVIIFKAMGVESDQEIVQMIGTEEHVMAAFGPSLEECQKAQIFTQMQALKYIGNKVRRQRMWGGGPKKTKIEEARELLASTILTHVPVKEFNFRAKCIYTAVMVRRVILAQGDNKVDDRDYYGNKRLELAGQLLSLLFEDLFKKFNSEMKKIADQVIPKQRAAQFDVVKHMRQDQITNGMVNAISTGNWSLKRFKMDRQGVTQVLSRLSYISALGMMTRISSQFEKTRKVSGPRSLQPSQWGMLCPSDTPEGEACGLVKNLALMTHITTDMEDGPIVKLASNLGVEDVNLLCGEELSYPNVFLVFLNGNILGVIRDHKKLVNTFRLMRRAGYINEFVSISTNLTDRCVYISSDGGRLCRPYIIVKKQKPAVTNKHMEELAQGYRNFEDFLHESLVEYLDVNEENDCNIALYEHTINKDTTHLEIEPFTLLGVCAGLIPYPHHNQSPRNTYQCAMGKQAMGTIGYNQRNRIDTLMYLLAYPQKPMVKTKTIELIEFEKLPAGQNATVAVMSYSGYDIEDALVLNKASLDRGFGRCLVYKNAKCTLKRYTNQTFDKVMGPMLDAATRKPIWRHEILDADGICSPGEKVENKQVLVNKSMPTVTQIPLEGSNVPQQPQYKDVPITYKGATDSYIEKVMISSNAEDAFLIKMLLRQTRRPEIGDKFSSRHGQKGVCGLIVPQEDMPFCDSGICPDIIMNPHGFPSRMTVGKLIELLAGKAGVLDGRFHYGTAFGGSKVKDVCEDLVRHGYNYLGKDYVTSGITGEPLEAYIYFGPVYYQKLKHMVLDKMHARARGPRAVLTRQPTEGRSRDGGLRLGEMERDCLIGYGASMLLLERLMISSDAFEVDVCGQCGLLGYSGWCHYCKSSCHVSSLRIPYACKLLFQELQSMNIIPRLKLSKYNE | no binding | binds | no binding | binds | – | – | – |
| POLR3G, subunit of the Pol III complex, endogenous, O15318 1-223 (protein) MAGNKGRGRAAYTFNIEAVGFSKGEKLPDVVLKPPPLFPDTDYKPVPLKTGEGEEYMLALKQELRETMKRMPYFIETPEERQDIERYSKRYMKVYKEEWIPDWRRLPREMMPRNKCKKAGPKPKKAKDAGKGTPLTNTEDVLKKMEELEKRGDGEKSDEENEEKEGSKEKSKEGDDDDDDDAAEQEEYDEEEQEEENDYINSYFEDGDDFGADSDDNMDEATY | – | – | – | – | – | – | binds |
